This note sets out measurements from publication PMC12263876, “DDX39B K63-linked ubiquitination mediated by TRIM28 promotes NSCLC metastasis by enhancing ECAD lysosomal degradation” (Signal Transduction and Targeted Therapy, 2025).

The chains behind the UniProt entries cited, without tags or fusion partners.
UniProt Q13838: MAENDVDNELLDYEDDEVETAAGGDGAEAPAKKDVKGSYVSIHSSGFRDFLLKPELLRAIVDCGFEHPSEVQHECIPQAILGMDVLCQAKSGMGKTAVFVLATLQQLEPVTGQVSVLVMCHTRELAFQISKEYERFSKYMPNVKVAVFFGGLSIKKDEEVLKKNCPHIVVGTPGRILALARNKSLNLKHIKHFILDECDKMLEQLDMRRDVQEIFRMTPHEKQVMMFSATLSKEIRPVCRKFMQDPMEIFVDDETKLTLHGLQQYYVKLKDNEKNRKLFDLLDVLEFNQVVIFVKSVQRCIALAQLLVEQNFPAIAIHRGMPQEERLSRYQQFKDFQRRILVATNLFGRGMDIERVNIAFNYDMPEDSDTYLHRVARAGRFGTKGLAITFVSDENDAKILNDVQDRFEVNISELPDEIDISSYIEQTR
UniProt Q13263: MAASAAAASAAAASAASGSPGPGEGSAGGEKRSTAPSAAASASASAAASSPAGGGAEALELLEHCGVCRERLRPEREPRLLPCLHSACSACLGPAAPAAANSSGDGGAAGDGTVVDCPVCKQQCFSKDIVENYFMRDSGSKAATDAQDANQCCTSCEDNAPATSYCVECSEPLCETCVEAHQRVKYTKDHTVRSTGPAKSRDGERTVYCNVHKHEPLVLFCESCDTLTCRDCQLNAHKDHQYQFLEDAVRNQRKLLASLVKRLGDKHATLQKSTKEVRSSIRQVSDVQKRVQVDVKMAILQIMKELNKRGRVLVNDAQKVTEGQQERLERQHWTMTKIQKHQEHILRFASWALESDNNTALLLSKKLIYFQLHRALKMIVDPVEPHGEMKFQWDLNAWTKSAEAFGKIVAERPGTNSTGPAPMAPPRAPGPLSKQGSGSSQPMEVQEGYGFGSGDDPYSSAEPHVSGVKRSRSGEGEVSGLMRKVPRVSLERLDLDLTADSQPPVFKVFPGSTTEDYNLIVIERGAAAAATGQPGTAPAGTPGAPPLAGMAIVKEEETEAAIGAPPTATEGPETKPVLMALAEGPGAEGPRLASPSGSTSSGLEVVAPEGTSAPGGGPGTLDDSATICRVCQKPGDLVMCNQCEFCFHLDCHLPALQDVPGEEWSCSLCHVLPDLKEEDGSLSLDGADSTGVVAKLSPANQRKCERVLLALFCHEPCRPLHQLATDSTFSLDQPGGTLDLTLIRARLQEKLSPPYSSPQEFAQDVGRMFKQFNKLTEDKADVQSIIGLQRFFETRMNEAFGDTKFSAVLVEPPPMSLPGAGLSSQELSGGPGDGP

The experiment concerns the target DDX39B, endogenous (human (endogenous in A549 and H1299)) (UniProt Q13838). Kind of experiment: co-IP; co-IP from NSCLC cell lysates (A549, H1299, A549-BM) with the indicated antibodies or normal IgG overnight at 4 °C, 5 washes with TBS, Western blot; also after EGF (30 ng/ml) or TGF-β (10 ng/ml) for 72 h, and in cells overexpressing DDX39B WT, P322A or 3KR. A general note: A western blot detects proteins with antibodies after separation by electrophoresis.

These are yes or no findings as the source states them, for the method shown. Binding seen in cells or lysates may run through a third protein. Some results given as binding are weak or reduced against the parent protein; the word gives no strength.

Take “TRIM28 (tripartite motif-containing 28), endogenous (from UniProt Q13263 1-835)”: the binding entry is “binds”.
